From US20180353539A1, “METAL COMPLEXES AS PHARMACEUTICALS FOR TREATMENT AND PREVENTION OF CANCER AND INFLAMMATORY DISEASES” (UNIVERSITY OF SOUTHERN CALIFORNIA, priority 2017, published 2018)
At least one compound was matched to its structure with a doubt left.

How the values were obtained:
Assay type in all cases: in vivo, human
[1] = test system: adenocarcinoma of the pancreatic head; assay: Case Study 6; conditions: 63rd day; before treatment 38-mm×42 mm
Protocol: A person had symptoms of weight loss and abdominal pain over a 2-month period. […] At the head, there was a 38-mm×42 mm mass detected. In addition, their intrahepatic billiard tree was dilated. The patient was given 125 mg of Zinc Iodide mixing with 1000 ml of sodium chloride 0.9% and 10 ml of DMSO through infusion daily for 20 days. […] They gained 4 kg of body weight. […] The patient is symptom free.

[2] = test system: esophageal cancer with multiple lymphatic metastases; assay: Case Study 10; conditions: 105th day; before treatment 4.2 cm×3.7 cm
Protocol: A person was diagnosed with esophageal cancer with multiple lymphatic metastases. Their blood chemistry profile was normal, but their CEA levels were 6.7 ng/mL. The patient presented symptoms of extreme fatigue, difficult swallowing, chest pains, fever and weight loss. An endoscopy reveled a 4.2 cm×3.7 cm lesion on their esophagus. The tumor had poorly differentiated adenocarcinoma. […] The patient underwent treatments of 200 mg of zinc iodide mixing with 1000 mL of 0.9% sodium chloride solution and in 10 mL of DMSO, 6 times/week for 4 weeks. […] They also stopped steroid treatment. […] After 24 days of the infusion treatment, they began taking 50 mg Zinc Iodide capsules, 3 times/day for 90 days.

[3] = test system: lung cancer; assay: Case Study 14; conditions: after 121 days; before treatment 5.7 cm×6.1 cm
Protocol: A person presented with cough and chest pains that persisted over 6 months. In that time, they also lost 6 kg of weight. In the last 20 days, the patient developed hemoptysis, which lead them to hospitalization. […] They also had total opacification of the right lung. The patient was diagnosed with lung cancer and sent home. The patient was treated with 3-50 mg Zinc Iodide capsules/day for 120 days. After 5 days, their breathing capabilities and cough improved.

[4] = test system: pancreatic adenocarcinoma; assay: Case Study 16
Protocol: A person presented symptoms of abdominal pain, nausea, and vomiting. […] They also had multiple metastases on their liver. They were diagnosed with pancreatic adenocarcinoma. Their CA 19-9 (levels of tumor-associated antigens in the blood) was 365 U/mL. The patient was treated through infusion with 200 mg of zinc Iodide mixing with 1000 mL of 0.9% sodium chloride solution and 10 mL of DMSO. The symptoms presented improved after 2 days of treatment. […] After 35 days on the treatment, an ultrasound was taken of the pancreas. The tumor had decreased to 4.3 cm×5.2 cm. Their CA 19-9 levels decreased to 168 U/mL. After 40 treatments, the patient began treatment orally; they were given 50 mg zinc iodide capsules 3 times/day. After 155 days on the oral treatment, a CT of their pancreas was taken. The tumor decreased to 2.4 cm×3.6 cm. The liver metastasis decreased by 50% also.

[5] = test system: cholangiocarcinoma; assay: Case Study 9; conditions: 105 days; before treatment 3.6 cm×4.1 cm
Excerpt: A person presented with jaundice, abdominal discomfort and lack of appetite. They could not eat or drink properly. Over the last 3 months, their weight decreased by 8 kg. […] There was also a hypodense lesion with an intraductal growth type, sized at 3.6 cm×4.1 cm, on their liver. […] They were diagnosed with cholangiocarcinoma.

[6] = test system: liver cancer; assay: Case Study 17
Protocol: A person with chronic hepatitis C presented symptoms of abdominal pain. […] They had also been diagnosed with type 2 diabetes three years prior. […] Within 5 days their abdominal pain disappeared, and […] general health improved. […] Their cancer related markers included: AFP: 678 IU/L, GOP: 146 IU/L, GPT: 126 IU/L, and GGT: 124 IU/L. The patient's blood glucose level was 6.7 mmol/L. For the next 90 days, the patient took 50 mg of zinc iodide orally in capsule form 3 times/day. […] Their cancer related markers included: AFP: 107 IU/L, GOP: 195 IU/L, GPT: 69 IU/L, and GGT: 115 IU/L. The patient's blood glucose level was 7.4 mmol/L.

**Q.** Which “tumor size (CT)” value [1] does the source give for `[I][Zn][I]` [Zinc Iodide, zinc iodide] here?
**A.** 12 mm×15 mm

**Q.** And the tumor size [2]?
**A.** 1.5 cm×1.4 cm

**Q.** What about the “tumor size (CT)” value [3] of the same compound?
**A.** 2.3 cm×2.9 cm

**Q.** And the “tumor size (ultrasound)” value ([4]; after 35 days, before treatment 5.6×6.3)?
**A.** 4.3 cm×5.2 cm

**Q.** What about the “tumor size (CT)” value ([4]; after 155 days on the oral treatment) of the same compound?
**A.** 2.4 cm×3.6 cm

**Q.** And the “tumor size (ultrasound)” value [5]?
**A.** 1.8 cm×2.1 cm

**Q.** And the “tumor size (ultrasound)” value ([6]; after 21 days, before treatment 8.5 cm×7.9 cm)?
**A.** 6.3 cm×5.4 cm

**Q.** What about the “tumor size (CT)” value ([6]; after further 90 days of oral treatment) of the same compound?
**A.** 2.6 cm×2.1 cm
